# ± gives the standard deviation of the averaged measurements. This is one part of the list.
# Target: T1, RAB9A (UniProt P51151)
# T1 sequence (whole entry): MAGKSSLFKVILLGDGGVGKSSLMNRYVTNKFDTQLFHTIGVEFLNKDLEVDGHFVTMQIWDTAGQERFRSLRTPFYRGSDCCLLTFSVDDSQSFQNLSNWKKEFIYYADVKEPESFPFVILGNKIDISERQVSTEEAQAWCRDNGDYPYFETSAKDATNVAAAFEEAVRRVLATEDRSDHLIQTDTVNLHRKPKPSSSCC
# Assay: NP40-soluble protein abundance relative to vehicle (solubility fold change) (ratio); higher = more soluble protein in presence of GTP
# Procedure: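 Solubility proteome profiling in Jurkat crude lysate. Lysate was treated with Mg-GTP (0.1-10 mM) for 10 min at room temperature and 3 min at 37 °C, then solubilised with 0.8% NP40 and benzonase, followed by ultracentrifugation. Proteins were quantified by TMT10 LC-MS/MS; the value is the NP40-soluble abundance relative to the NP40-processed vehicle, from 3 independent experiments.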
structure (smiles),measurement,setting,value
Nc1nc2c(ncn2[C@@H]2O[C@H](COP(=O)(O)OP(=O)(O)OP(=O)(O)O)[C@@H](O)[C@H]2O)c(=O)[nH]1 [guanosine triphosphate],NP40-soluble protein abundance,concentration: 0.1mM,0.941 ± 0.065
same,NP40-soluble protein abundance,concentration: 0.5mM,0.98 ± 0.056
same,NP40-soluble protein abundance,concentration: 1mM,0.859 ± 0.053
same,NP40-soluble protein abundance,concentration: 2mM,0.902 ± 0.076
same,NP40-soluble protein abundance,concentration: 4mM,0.841 ± 0.042
same,NP40-soluble protein abundance,concentration: 6mM,0.799 ± 0.069
same,NP40-soluble protein abundance,concentration: 8mM,0.82 ± 0.057
same,NP40-soluble protein abundance,concentration: 10mM,0.805 ± 0.068

# From the supplement of paper PMC6411743
